We go through two substances from publication PMC4289911 (Nuclear Medicine and Biology, 2015).

HELM strings list residues between dots; [ac] is acetyl, [am] amide, other brackets name non-standard units.

The data set can be described thus: general procedure: Fmoc solid-phase peptide synthesis; tritylchloride resin (TCP resin); HATU/HOAt/DIPEA (conjugation to [Fe]FSC); DPPA/NaHCO3 (cyclisation). The note with it: late stage modification step, TFA salt.

Regarding “PEPTIDE1{R.G.D.[dF].K}|PEPTIDE2{R.G.D.[dF].K}|PEPTIDE3{R.G.D.[dF].K}|CHEM1{[FSC]}|CHEM2{[Succ]}|CHEM3{[Succ]}|CHEM4{[Succ]}$PEPTIDE1,PEPTIDE1,1:R1-5:R2|PEPTIDE2,PEPTIDE2,1:R1-5:R2|PEPTIDE3,PEPTIDE3,1:R1-5:R2|PEPTIDE1,CHEM2,5:R3-1:R1|PEPTIDE2,CHEM3,5:R3-1:R1|PEPTIDE3,CHEM4,5:R3-1:R1|CHEM2,CHEM1,1:R2-1:R1|CHEM3,CHEM1,1:R2-1:R2|CHEM4,CHEM1,1:R2-1:R3$$$V2.0”, the “final HPLC purity” value (RP-HPLC) is given as more than 95%. Besides, the step yield is 37% of theoretical yield (run 1) and “approx. 40%” (run 2).
Take “cyclo(-Arg(Pbf)-Gly-Asp(OtBu)-DPhe-Lys(Succ)-)”: the step yield is recorded as 56% of theoretical yield.
